Measurements as given in the supplement of paper PMC8728848.
The other results are listed elsewhere or left out.

Assays:
Assay in all cases: glycan array binding signal (z-score within array); higher = stronger binding
Conditions in all cases: glycan notation: IUPAC condensed, linker removed
[1] = target: Neu5Ac(a2-6)Gal(b1-4)GlcNAc(b1-2)Man(a1-3)[Man(a1-6)]Man(b1-4)GlcNAc(b1-4)GlcNAc
Summary of the method: (§1)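 Glycan array data came from 3228 arrays in the Consortium for Functional Glycomics database, and only arrays with an available protein sequence were kept. Glycan names were put into IUPAC-condensed notation, and columns mapping to the same glycan were averaged. The binding signal is a within-array Z-score, averaged across arrays of one protein sequence run at different concentrations or buffers and across linkers. A negative Z-score can be read as non-binding.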

[2] = target: Neu5Ac(a2-6)Gal(b1-4)GlcNAc(b1-2)Man(a1-3)[Neu5Ac(a2-3)Gal(b1-4)GlcNAc(b1-2)Man(a1-6)]Man(b1-4)GlcNAc(b1-4)GlcNAc
Summary of the method: as §1

[3] = target: Neu5Ac(a2-6)Gal(b1-4)GlcNAc(b1-2)Man(a1-3)[Neu5Ac(a2-6)Gal(b1-4)GlcNAc(b1-2)Man(a1-6)]Man(b1-4)GlcNAc(b1-4)GlcNAc
Summary of the method: as §1

[4] = target: Neu5Ac(a2-6)Gal(b1-4)GlcNAc(b1-2)Man(a1-3)[Neu5Ac(a2-6)Gal(b1-4)GlcNAc(b1-2)Man(a1-6)]Man(b1-4)GlcNAc(b1-4)[Fuc(a1-6)]GlcNAc
Summary of the method: as §1

[5] = target: Neu5Ac(a2-6)Gal(b1-4)GlcNAc(b1-2)Man(a1-6)Man(b1-4)GlcNAc(b1-4)GlcNAc
Summary of the method: as §1

[6] = target: Neu5Ac(a2-6)Gal(b1-4)GlcNAc(b1-2)Man(a1-6)[Gal(b1-4)GlcNAc(b1-2)Man(a1-3)]Man(b1-4)GlcNAc(b1-4)GlcNAc
Summary of the method: as §1

[7] = target: Neu5Ac(a2-6)Gal(b1-4)GlcNAc(b1-2)Man(a1-6)[GlcNAc(b1-2)Man(a1-3)]Man(b1-4)GlcNAc(b1-4)GlcNAc
Summary of the method: as §1

[8] = target: Neu5Ac(a2-6)Gal(b1-4)GlcNAc(b1-2)Man(a1-6)[Man(a1-3)]Man(b1-4)GlcNAc(b1-4)GlcNAc
Summary of the method: as §1

[9] = target: Neu5Ac(a2-6)Gal(b1-4)GlcNAc(b1-2)[Neu5Ac(a2-6)Gal(b1-4)GlcNAc(b1-4)]Man(a1-3)[GlcNAc(b1-4)][Neu5Ac(a2-6)Gal(b1-4)GlcNAc(b1-2)[Neu5Ac(a2-6)Gal(b1-4)GlcNAc(b1-6)]Man(a1-6)]Man(b1-4)GlcNAc(b1-4)GlcNAc
Summary of the method: as §1

[10] = target: Neu5Ac(a2-6)Gal(b1-4)GlcNAc(b1-2)[Neu5Ac(a2-6)Gal(b1-4)GlcNAc(b1-4)]Man(a1-3)[GlcNAc(b1-4)][Neu5Ac(a2-6)Gal(b1-4)GlcNAc(b1-4)Man(a1-6)]Man(b1-4)GlcNAc(b1-4)GlcNAc
Summary of the method: as §1

[11] = target: Neu5Ac(a2-6)Gal(b1-4)GlcNAc(b1-2)[Neu5Ac(a2-6)Gal(b1-4)GlcNAc(b1-6)]Man(a1-6)[Neu5Ac(a2-6)Gal(b1-4)GlcNAc(b1-2)Man(a1-3)][GlcNAc(b1-4)]Man(b1-4)GlcNAc(b1-4)GlcNAc
Summary of the method: as §1

[12] = target: Neu5Ac(a2-6)Gal(b1-4)GlcNAc(b1-3)Gal(b1-3)GlcNAc
Summary of the method: as §1

[13] = target: Neu5Ac(a2-6)Gal(b1-4)GlcNAc(b1-3)Gal(b1-4)GlcNAc
Summary of the method: as §1

[14] = target: Neu5Ac(a2-6)Gal(b1-4)GlcNAc(b1-3)Gal(b1-4)GlcNAc(b1-2)Man(a1-3)[Neu5Ac(a2-6)Gal(b1-4)GlcNAc(b1-3)Gal(b1-4)GlcNAc(b1-2)Man(a1-6)]GalNAc
Summary of the method: as §1

[15] = target: Neu5Ac(a2-6)Gal(b1-4)GlcNAc(b1-3)Gal(b1-4)GlcNAc(b1-3)Gal(b1-4)GlcNAc
Summary of the method: as §1

[16] = target: Neu5Ac(a2-6)Gal(b1-4)GlcNAc(b1-3)Gal(b1-4)GlcNAc(b1-3)Gal(b1-4)GlcNAc(b1-2)Man(a1-3)[Neu5Ac(a2-6)Gal(b1-4)GlcNAc(b1-3)Gal(b1-4)GlcNAc(b1-3)Gal(b1-4)GlcNAc(b1-2)Man(a1-6)]GalNAc
Summary of the method: as §1

[17] = target: Neu5Ac(a2-6)Gal(b1-4)GlcNAc(b1-3)Gal(b1-4)GlcNAc(b1-3)GalNAc
Summary of the method: as §1

[18] = target: Neu5Ac(a2-6)Gal(b1-4)GlcNAc(b1-3)Gal(b1-4)GlcNAc(b1-3)[Neu5Ac(a2-6)Gal(b1-4)GlcNAc(b1-3)Gal(b1-4)GlcNAc(b1-6)]GalNAc
Summary of the method: as §1

[19] = target: Neu5Ac(a2-6)Gal(b1-4)GlcNAc(b1-3)Gal(b1-4)GlcNAc(b1-6)[Gal(b1-3)]GalNAc
Summary of the method: as §1

[20] = target: Neu5Ac(a2-6)Gal(b1-4)GlcNAc(b1-3)Gal(b1-4)[Fuc(a1-3)]GlcNAc(b1-3)Gal(b1-4)[Fuc(a1-3)]GlcNAc
Summary of the method: as §1

[21] = target: Neu5Ac(a2-6)Gal(b1-4)GlcNAc(b1-3)GalNAc
Summary of the method: as §1

[22] = target: Neu5Ac(a2-6)Gal(b1-4)GlcNAc(b1-3)[Neu5Ac(a2-6)Gal(b1-4)GlcNAc(b1-6)]GalNAc
Summary of the method: as §1

[23] = target: Neu5Ac(a2-6)Gal(b1-4)GlcNAc(b1-6)GalNAc
Summary of the method: as §1

[24] = target: Neu5Ac(a2-6)Gal(b1-4)GlcNAc(b1-6)[Gal(b1-3)GlcNAc(b1-3)]Gal(b1-4)Glc
Summary of the method: as §1

[25] = target: Neu5Ac(a2-6)Gal(b1-4)GlcNAc(b1-6)[Gal(b1-3)]GalNAc
Summary of the method: as §1

[26] = target: Neu5Ac(a2-6)Gal(b1-4)GlcNAc6S
Summary of the method: as §1

Neu5Ac(a2-6)GalNAc = target: Neu5Ac(a2-6)GalNAc
Summary of the method: as §1

[27] = target: Neu5Ac(a2-6)GalNAc(b1-4)GlcNAc
Summary of the method: as §1

[28] = target: Neu5Ac(a2-6)GalNAc(b1-4)GlcNAc6S
Summary of the method: as §1

[29] = target: Neu5Ac(a2-6)GlcNAc(b1-4)GlcNAc
Summary of the method: as §1

[30] = target: Neu5Ac(a2-6)GlcNAc(b1-4)GlcNAc(b1-4)GlcNAc
Summary of the method: as §1

B1: Epa20 (Candida glabrata) (protein)
chain: MGSSHHHHHHSSGLVPRGSHMASSNIPNNYPLGCSNKYSGHLPGLKMELYSYNYVNPRHPDPQNPGKLDQLYDPNLLGTYECFDSSYKDINYPRVGYKSKTLIGRSDGVSGILNFNFVPPWGCMPQKGQLPPAYNFKSNITLSNFTMILFGYFKPKISGNHIFSLHGDDLIYLNFGAGNAFDCCRQESSADNFGNYQAFSLWGINWEKKTLTVYLDMNTYYPIRIFYNNRDYQAIFNFSFKTEFDSSPVIDFQDYFFFLRDIDGGCPGEV
- glycan array binding signal (z-score) [1]: 0.402
- glycan array binding signal (z-score) [2]: -0.101
- glycan array binding signal (z-score) [3]: 0.06
- glycan array binding signal (z-score) [4]: 0.171
- glycan array binding signal (z-score) [5]: -0.108
- glycan array binding signal (z-score) [6]: -0.351
- glycan array binding signal (z-score) [7]: 0.444
- glycan array binding signal (z-score) [8]: 0.245
- glycan array binding signal (z-score) [9]: -0.267
- glycan array binding signal (z-score) [10]: -0.502
- glycan array binding signal (z-score) [11]: -0.412
- glycan array binding signal (z-score) [12]: 0.113
- glycan array binding signal (z-score) [13]: -0.606
- glycan array binding signal (z-score) [14]: 2.15
- glycan array binding signal (z-score) [15]: -0.948
- glycan array binding signal (z-score) [16]: 3.97
- glycan array binding signal (z-score) [17]: 0.784
- glycan array binding signal (z-score) [18]: 1.17
- glycan array binding signal (z-score) [19]: 0.103
- glycan array binding signal (z-score) [20]: -0.116
- glycan array binding signal (z-score) [21]: 0.279
- glycan array binding signal (z-score) [22]: -0.014
- glycan array binding signal (z-score) [23]: 0.553
- glycan array binding signal (z-score) [24]: -0.192
- glycan array binding signal (z-score) [25]: 0.163
- glycan array binding signal (z-score) [26]: -0.384
- glycan array binding signal (z-score) (Neu5Ac(a2-6)GalNAc): -0.86
- glycan array binding signal (z-score) [27]: -0.36
- glycan array binding signal (z-score) [28]: 0.195
- glycan array binding signal (z-score) [29]: -0.436
- glycan array binding signal (z-score) [30]: -0.124
